# Laboratory results from article PMC6900553 (Acta Pharmaceutica Sinica. B, 2019).
# Test: Caco-2 cell permeability assay
# Details: human
compound,measurement,value
CC(C)NCC(O)COc1ccc(CC(N)=O)cc1 (stereo not drawn) [Atenolol],"Papp A→B at 90 min, 10 μmol/L",0.66 ± 0.01 ×10⁻⁶ cm/s
same,"Papp B→A at 90 min, 10 μmol/L",1.53 ± 0.01 ×10⁻⁶ cm/s
same,"efflux ratio at 90 min, 10 μmol/L",2.31
